According to PMC7819943, “Rice protein-binding microarrays: a tool to detect cis-acting elements near promoter regions in rice”:
This is one part of the list.

Protein sequences, listed by entry. Tags and fused reporters are not part of them.
UniProt Q0JBA9, entry or part of it: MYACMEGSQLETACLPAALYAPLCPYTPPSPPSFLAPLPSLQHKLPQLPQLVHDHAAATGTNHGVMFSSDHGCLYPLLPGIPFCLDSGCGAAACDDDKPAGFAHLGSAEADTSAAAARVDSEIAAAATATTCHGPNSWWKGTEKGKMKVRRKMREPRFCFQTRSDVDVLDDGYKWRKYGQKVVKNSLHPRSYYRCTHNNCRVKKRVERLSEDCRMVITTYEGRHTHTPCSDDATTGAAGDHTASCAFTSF

Each sequence was assayed against OsWRKY34 (Oryza sativa, UniProt Q0JBA9 1-250) (assay: protein-binding microarray (RPBM); PBS, 2% BSA, 51.3 ng/ul salmon testes DNA, 50 uM zinc acetate, 200 nM TF, 25 C, 1 h; high values mean tight binding). Settings: protein: recombinant; tags: N-terminal polyhistidine and DsRed monomer fusion (pET32a); label: CyDye5-dUTP incorporated in the synthesized complementary strand; 3' TTTTT single-stranded linker to array surface; dsDNA, one strand shown.
In short: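 Binding signal is reported as fluorescence intensity per feature (arbitrary units) from an Axon 4000B scanner. Incubation used 200 nM of each Ni–NTA-purified, N-terminally polyhistidine- and DsRed-fused transcription factor from E. coli BL21-CodonPlus on a double-stranded custom Agilent array for 1 h at 25 °C, with 50 µM zinc acetate in the buffer, followed by washing.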

Row | Sequence | binding signal
1 | TTTATGATTCATCCTCATTCTGCTGTTAATTTATCACTTACGGAGTCACCTAGTGCAG | 8930 fluorescence intensity (a.u.)
2 | CCCCATATAAATCACACCCGTCGCATCGCTCCGATTCCCACGGAGTCACCTAGTGCAG | 8210 fluorescence intensity (a.u.)
3 | AGTCATCAGTTAGTGATTATGCTTGTTTGTTGTGATTAGTCGGAGTCACCTAGTGCAG | 11300 fluorescence intensity (a.u.)
4 | AATCCGCTCCGCTCCGTCTTCCTTCGATCCATAGGATTCGCGGAGTCACCTAGTGCAG | 9160 fluorescence intensity (a.u.)
5 | CATCTCTGCAGCTTGCCGCCGCCTCCTCCTTCGTAGGGACCGGAGTCACCTAGTGCAG | 9190 fluorescence intensity (a.u.)
6 | TCAACCTACTCGCCGTGCCACCATTGCCGCTCCCTACCAACGGAGTCACCTAGTGCAG | 12400 fluorescence intensity (a.u.)
7 | TCATTGTTTGCATGTCATTTAAGTAGTTATAATATTTTTTCGGAGTCACCTAGTGCAG | 9170 fluorescence intensity (a.u.)
8 | ATTTTTTAAAACATATCACATTGTTTTGTTCTTTTCATTTCGGAGTCACCTAGTGCAG | 12100 fluorescence intensity (a.u.)
9 | GCTCCGTCCTGCTGCTACCGCGTACATATACAGTACCGCCCGGAGTCACCTAGTGCAG | 9930 fluorescence intensity (a.u.)
10 | CCCTCCGTCGCCAGCTTTCCGTGCCGATACACCTGCTGGCCGGAGTCACCTAGTGCAG | 10800 fluorescence intensity (a.u.)
11 | ACGGTTGGGGATGTCTATGTAATCCGATGATAAGATGAGGCGGAGTCACCTAGTGCAG | 8030 fluorescence intensity (a.u.)
12 | AATCGGCCGCCGTTGACCACTGCTCTTCTCCCTCTTCTCTCGGAGTCACCTAGTGCAG | 12500 fluorescence intensity (a.u.)
13 | TTGGATCGGTGTTGGTATATTTAGTTAGTTTAGAGGTCTTCGGAGTCACCTAGTGCAG | 12600 fluorescence intensity (a.u.)
14 | GCGGCTGGGGCGGGGAGTACAAGGCCTGGGTTGCATCGCACGGAGTCACCTAGTGCAG | 9980 fluorescence intensity (a.u.)
15 | TGTTCATCCCGGATTTGGCTGGGGTTTGTCTAAAATTCGACGGAGTCACCTAGTGCAG | 8080 fluorescence intensity (a.u.)
16 | ATTAAACCTTGCAATCCTGTATAATCCTATTGTAGATTTGCGGAGTCACCTAGTGCAG | 8160 fluorescence intensity (a.u.)
17 | GAAGAGGAGGAGGAGGAGGAGGAGGAGGAGGGGATCAATGCGGAGTCACCTAGTGCAG | 8350 fluorescence intensity (a.u.)
18 | AAGAAAGCTATATACCATCTCTCATGCGAGTAAATAATTACGGAGTCACCTAGTGCAG | 8340 fluorescence intensity (a.u.)
19 | TATCTTCCTTGTATTTGTTTTTTTTGTTTCTTTTTTCCTTCGGAGTCACCTAGTGCAG | 8750 fluorescence intensity (a.u.)
20 | ACTGCTTTCCAACCACCTTGATGTTTTTCTTGTTGTTCATCGGAGTCACCTAGTGCAG | 11200 fluorescence intensity (a.u.)
21 | CCCATGCATAAAGTAGTATGTATAGTGTGTTTACTTAATTCGGAGTCACCTAGTGCAG | 12000 fluorescence intensity (a.u.)
22 | ACAAGGGGAAGGGGAAAGGAAAAGTTGACTTTTCAGCTTGCGGAGTCACCTAGTGCAG | 8420 fluorescence intensity (a.u.)
23 | AGAGATATCTTCCATTGCGAGCTGGATTTCCTACTAATGTCGGAGTCACCTAGTGCAG | 8110 fluorescence intensity (a.u.)
24 | CCCAGCCACAGCGACGAACCACCGCCCCGGAGGCCGCCGGCGGAGTCACCTAGTGCAG | 8460 fluorescence intensity (a.u.)
25 | CGTCGAGTTGGGTGGGAAGAGGAAGGCGTATCATCTCGATCGGAGTCACCTAGTGCAG | 8520 fluorescence intensity (a.u.)
26 | AGAGAGAGGGGAGGGCAGCAGAAGGGGAGCGGCGAAGCCCCGGAGTCACCTAGTGCAG | 8990 fluorescence intensity (a.u.)
27 | GCGCCTCGTCGAACTCCCCACCGTGCTCTGCTGCCGCCCTCGGAGTCACCTAGTGCAG | 8440 fluorescence intensity (a.u.)

Row | Sequence | binding signal
28 | CGCTGACTCCATATCGCCTTGTTGGTTATGACCAAATATTCGGAGTCACCTAGTGCAG | 8060 fluorescence intensity (a.u.)
29 | TAATATGTATAAATTTGGTCTCTACTTTATCCTTCAATTTCGGAGTCACCTAGTGCAG | 9500 fluorescence intensity (a.u.)
30 | ACTTCAGTCATTTTCCATCACATCAACATGTCATATACATCGGAGTCACCTAGTGCAG | 8420 fluorescence intensity (a.u.)
31 | CACACGAGTGACTCTCACCATCCATTTCTCAAGCTCTCGACGGAGTCACCTAGTGCAG | 10100 fluorescence intensity (a.u.)
32 | AGTCTTGGACGGTGATCTCCATTGCTTTTGTGATTTTGCTCGGAGTCACCTAGTGCAG | 9250 fluorescence intensity (a.u.)
33 | TTGTTAGAAAATCCGTCTCTTGTACCCATCTCGTCGAAACCGGAGTCACCTAGTGCAG | 9070 fluorescence intensity (a.u.)
34 | ATTTTTACGTGCGATTAAAATTAATTTTTCACATATAGCTCGGAGTCACCTAGTGCAG | 8520 fluorescence intensity (a.u.)
35 | TCCCGCGCTTCGCCGGCGAACTCTTCGTCCAGTTCATCATCGGAGTCACCTAGTGCAG | 10500 fluorescence intensity (a.u.)
36 | GTCTCTCTTGTCCTCCGTTGGATGTCTCCCTGAGGGATCGCGGAGTCACCTAGTGCAG | 8820 fluorescence intensity (a.u.)
37 | CACCCGTATGAACACGCTTGGACACCCTTATGATTACTTTCGGAGTCACCTAGTGCAG | 8020 fluorescence intensity (a.u.)
38 | CAGTTGACCGCCACGTAGAACCTGTTCCTCCAGCTCACCACGGAGTCACCTAGTGCAG | 8130 fluorescence intensity (a.u.)
39 | CACCCATTTTCTCCACTAAAATACGCGCCGCTTATTAAATCGGAGTCACCTAGTGCAG | 8500 fluorescence intensity (a.u.)
40 | TCCCTCGCCATCATCCATGTTCATCTGCACACCTGGATCCCGGAGTCACCTAGTGCAG | 9670 fluorescence intensity (a.u.)
41 | TCGGTATTTTCTGTTCTGATTCATGTGCTTCTTCATCTTCCGGAGTCACCTAGTGCAG | 13300 fluorescence intensity (a.u.)
42 | CGCTCATCTATTTCTTTGTAGTACAACGCAGGCGCTCACACGGAGTCACCTAGTGCAG | 8090 fluorescence intensity (a.u.)
43 | AGTCCTTACCTCGGCGTCGACTCGTACGTTTAAATCTAGCCGGAGTCACCTAGTGCAG | 9320 fluorescence intensity (a.u.)
44 | CACTAGTGCACCATCTTATATTCTTCCTACATATTCATTCCGGAGTCACCTAGTGCAG | 12500 fluorescence intensity (a.u.)
45 | GCGCCCTTAAAAAACACTCATCCAATTCACACCACACTTTCGGAGTCACCTAGTGCAG | 9400 fluorescence intensity (a.u.)
46 | ACTGGAGACGGGTTCTGCACCTGCCGCTACCAACGTCGCTCGGAGTCACCTAGTGCAG | 8880 fluorescence intensity (a.u.)
47 | GTCGGCTGCACTGATCGATTCCATCACTCTCTCTCTCTCGCGGAGTCACCTAGTGCAG | 10300 fluorescence intensity (a.u.)
48 | ATCTCATTATCTATGGGCCTTTAGTTTTCCTTTCCGATCTCGGAGTCACCTAGTGCAG | 8100 fluorescence intensity (a.u.)
49 | CATCGACGGATCCTCATCCTAATCCGTTCCCTTTGTCCTGCGGAGTCACCTAGTGCAG | 8720 fluorescence intensity (a.u.)
50 | CTCTTCGCCGCCCGCGGCGCGCCTTCCAGAACCTTCCAGACGGAGTCACCTAGTGCAG | 8930 fluorescence intensity (a.u.)
51 | CTAAAATTTGCTGCTCTCTCCAGTTCCTTCACTTCTTCAACGGAGTCACCTAGTGCAG | 8190 fluorescence intensity (a.u.)
52 | CTTGTTTTTTTTTACGAGGTTTAGTTCATTTCTCGTACGGCGGAGTCACCTAGTGCAG | 8960 fluorescence intensity (a.u.)
53 | GCCCGTCTTCGTCCAGTTCCTGATCAGGTATGGTCCTTCTCGGAGTCACCTAGTGCAG | 8060 fluorescence intensity (a.u.)
54 | GAACCGACCTTCATGAACCGACGTCCACCGCCTATAAATACGGAGTCACCTAGTGCAG | 11000 fluorescence intensity (a.u.)

Reprinted: entries 22 to 32
Row | Sequence | binding signal
22 | ACAAGGGGAAGGGGAAAGGAAAAGTTGACTTTTCAGCTTGCGGAGTCACCTAGTGCAG | 8420 fluorescence intensity (a.u.)
23 | AGAGATATCTTCCATTGCGAGCTGGATTTCCTACTAATGTCGGAGTCACCTAGTGCAG | 8110 fluorescence intensity (a.u.)
24 | CCCAGCCACAGCGACGAACCACCGCCCCGGAGGCCGCCGGCGGAGTCACCTAGTGCAG | 8460 fluorescence intensity (a.u.)
25 | CGTCGAGTTGGGTGGGAAGAGGAAGGCGTATCATCTCGATCGGAGTCACCTAGTGCAG | 8520 fluorescence intensity (a.u.)
26 | AGAGAGAGGGGAGGGCAGCAGAAGGGGAGCGGCGAAGCCCCGGAGTCACCTAGTGCAG | 8990 fluorescence intensity (a.u.)
27 | GCGCCTCGTCGAACTCCCCACCGTGCTCTGCTGCCGCCCTCGGAGTCACCTAGTGCAG | 8440 fluorescence intensity (a.u.)
28 | CGCTGACTCCATATCGCCTTGTTGGTTATGACCAAATATTCGGAGTCACCTAGTGCAG | 8060 fluorescence intensity (a.u.)
29 | TAATATGTATAAATTTGGTCTCTACTTTATCCTTCAATTTCGGAGTCACCTAGTGCAG | 9500 fluorescence intensity (a.u.)
30 | ACTTCAGTCATTTTCCATCACATCAACATGTCATATACATCGGAGTCACCTAGTGCAG | 8420 fluorescence intensity (a.u.)
31 | CACACGAGTGACTCTCACCATCCATTTCTCAAGCTCTCGACGGAGTCACCTAGTGCAG | 10100 fluorescence intensity (a.u.)
32 | AGTCTTGGACGGTGATCTCCATTGCTTTTGTGATTTTGCTCGGAGTCACCTAGTGCAG | 9250 fluorescence intensity (a.u.)
